Data as given in PubChem BioAssay AID493246 (Drosophila RNAi Screening Center, 2011).
The screen tested about 21,000 reagents; below is an unselected part of those that have a named target and a result. Over the whole deposit, 429 (2%) were called active. 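Values are raw and not normalised between plates; calls rest on per-plate z-scores that were not deposited.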 The numbers tell different reagents against one gene apart. The record does not give: the amount of reagent, the time to read-out.

Test: 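Genome-wide search for dsRNAs that reduce cell number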 (primary screen)
System: Drosophila Kc and S2R+ cells
Reagent: long dsRNA against Drosophila genes
Measured: 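Cell number per well after knock-down, printed as raw plate values; calls were based on per-plate z-scores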
Scale: Kc cell number and S2R+ cell number: higher = more cells remaining
Hit rule: 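Counted as a hit if cell number falls by a z-score of at least 3 within its plate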

target gene | reagent | Kc cell number, rep 1 | Kc cell number, rep 2 | S2R+ cell number, rep 1 | S2R+ cell number, rep 2 | outcome
Osi8 | 1 | 1.61e6 | 1.74e6 | 1.40e6 | 1.56e6 | inactive
Tsp42Eq | 1 | 1.57e6 | 1.64e6 | 1.35e6 | 1.43e6 | inactive
wrm1 | 1 | 1.40e6 | 1.44e6 | 1.25e6 | 1.19e6 | inactive
Coop | 1 | 1.44e6 | 1.44e6 | 1.01e6 | 1.01e6 | inactive
vih | 1 | 1.20e6 | 1.37e6 | 7.05e5 | 8.06e5 | active
Lcp65APsi | 1 | 1.65e6 | 1.66e6 | 1.02e6 | 1.23e6 | inactive
Lcp65APsi | 2 | 1.30e6 | 1.36e6 | 1.10e6 | 1.18e6 | inactive
CG34168 | 1 | 1.67e6 | 1.92e6 | 1.28e6 | 1.42e6 | inactive

Entries above whose gene name begins with L or l:
target gene | reagent | Kc cell number, rep 1 | Kc cell number, rep 2 | S2R+ cell number, rep 1 | S2R+ cell number, rep 2 | outcome
Lcp65APsi | 1 | 1.65e6 | 1.66e6 | 1.02e6 | 1.23e6 | inactive
Lcp65APsi | 2 | 1.30e6 | 1.36e6 | 1.10e6 | 1.18e6 | inactive

The results go on:
target gene | reagent | Kc cell number, rep 1 | Kc cell number, rep 2 | S2R+ cell number, rep 1 | S2R+ cell number, rep 2 | outcome
ND-B14.5B | 1 | 1.55e6 | 1.52e6 | 1.12e6 | 1.25e6 | inactive
SIFaR | 1 | 1.52e6 | 1.48e6 | 1.08e6 | 1.05e6 | inactive
SIFaR | 2 | 1.49e6 | 1.44e6 | 1.11e6 | 1.19e6 | inactive
CG6996 | 1 | 1.64e6 | 1.75e6 | 1.23e6 | 1.40e6 | inactive
CG3880 | 1 | 1.67e6 | 1.76e6 | 1.43e6 | 1.58e6 | inactive
Brd8 | 1 | 4.68e5 | – | 7.91e5 | – | inactive
CG14341 | 1 | 1.81e6 | 1.85e6 | 1.13e6 | 1.30e6 | inactive
BomBc2 | 1 | 1.49e6 | 1.54e6 | 1.10e6 | 1.22e6 | inactive
foxo | 1 | 5.66e5 | 5.93e5 | 5.10e5 | 6.03e5 | active
foxo | 2 | 1.72e6 | 1.52e6 | 1.23e6 | 1.23e6 | inactive
CG15473 | 1 | 1.55e6 | 1.52e6 | 1.05e6 | 1.21e6 | inactive
Zpr1 | 1 | 6.19e5 | – | 8.36e5 | – | inactive
CG31937 | 1 | 1.41e6 | 1.38e6 | 1.17e6 | 1.17e6 | inactive
Men-b | 1 | 1.53e6 | 1.56e6 | 1.04e6 | 1.11e6 | inactive
CG9117 | 1 | 1.61e6 | 1.80e6 | 1.14e6 | 1.30e6 | inactive
CG33268 | 1 | 1.54e6 | 1.53e6 | 1.37e6 | 1.46e6 | inactive
